{"source": "PubChem BioAssay AID1259308, NCATS – 2017", "aim": "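Candidate targets for better recombinant protein yield in mammalian cells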 (primary screen)", "system": "human HEK293 embryonic kidney cells stably expressing firefly luciferase (HEK-CMV-Luc2-Hygro)", "reagents": "single siRNA against human genes, 0.8 pmol siRNA per well", "timing": "72 h", "read-out": "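Luciferase light (ONE-Glo) measured on one replicate plate set and viability (CellTiter-Glo) on the other, scaled to a negative control siRNA, with robust z-scores and luciferase per cell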", "scale": "total luciferase, z-score and total luciferase, % of control: higher = more reporter protein produced", "rule for the call": "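An siRNA counts as active if its total luciferase robust z-score exceeds 3; genes with two or more such siRNAs out of three were retested with fresh siRNAs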", "meaning of the calls": "active = raised luciferase; inactive = no rise", "note": "The whole screen tested about 59,000 reagents; below is an unselected part. About 1,510 of all reagents (2.6%) count as active. 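Calls use total luciferase alone and ignore viability, so some active siRNAs may act by altering cell number.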 Entries without a mark were called inactive. Reagents against one gene are numbered here. Further read-outs or replicates are left out here."}
{"target": "LUZP2 (leucine zipper protein 2)", "siRNA no.": 1, "total luciferase, z-score": -0.398, "total luciferase, % of control": 74}
{"target": "LUZP2 (leucine zipper protein 2)", "siRNA no.": 2, "total luciferase, z-score": 1.53, "total luciferase, % of control": 112}
{"target": "LUZP2 (leucine zipper protein 2)", "siRNA no.": 3, "total luciferase, z-score": 2.3, "total luciferase, % of control": 128}
{"target": "HRNR (hornerin)", "siRNA no.": 1, "total luciferase, z-score": 2.26, "total luciferase, % of control": 127}
{"target": "HRNR (hornerin)", "siRNA no.": 2, "total luciferase, z-score": 1.69, "total luciferase, % of control": 116}
{"target": "HRNR (hornerin)", "siRNA no.": 3, "total luciferase, z-score": 0.00192, "total luciferase, % of control": 81.9}
{"target": "HPGD (15-hydroxyprostaglandin dehydrogenase)", "siRNA no.": 1, "total luciferase, z-score": -0.275, "total luciferase, % of control": 76.4}
{"target": "HPGD (15-hydroxyprostaglandin dehydrogenase)", "siRNA no.": 2, "total luciferase, z-score": 0.994, "total luciferase, % of control": 102}
{"target": "HPGD (15-hydroxyprostaglandin dehydrogenase)", "siRNA no.": 3, "total luciferase, z-score": 0.283, "total luciferase, % of control": 87.5}
{"target": "OR12D2 (olfactory receptor family 12 subfamily D member 2)", "siRNA no.": 1, "total luciferase, z-score": 0.843, "total luciferase, % of control": 98.7}
{"target": "OR12D2 (olfactory receptor family 12 subfamily D member 2)", "siRNA no.": 2, "total luciferase, z-score": 0.0238, "total luciferase, % of control": 82.4}
{"target": "OR12D2 (olfactory receptor family 12 subfamily D member 2)", "siRNA no.": 3, "total luciferase, z-score": 1.54, "total luciferase, % of control": 113}

2 neighbouring entries from above, quoted:
{"target": "HRNR (hornerin)", "siRNA no.": 2, "total luciferase, z-score": 1.69, "total luciferase, % of control": 116}
{"target": "HRNR (hornerin)", "siRNA no.": 3, "total luciferase, z-score": 0.00192, "total luciferase, % of control": 81.9}
